Results as given in patent publication US6676946B2 (priority 1997, dated 2004).
Where a sequence shows no end group, the ends are not given.

Assay: general procedure: Fmoc solid-phase peptide synthesis; Wang resin; TBTU
Details: whole synthesis, scale 0.15 mmol

KLFAVWKITYKDT
isolated mass: 31 mg
